Values of other authors as cited in patent publication US6936624B2, “Agents for preserving technical materials against insects” (Nihon Bayer Agrochem K.K., priority 1991, dated 2005).
For at least one compound, name, drawing or mass did not settle the structure.

Tested on: larvae of Hylotrupes bajulus
Conditions: comparative values, Holz als Roh- und Werkstoff 35 (1977) 233-237, table 6; cited from earlier work

SMILES | toxic value
CCOP(=S)(OCC)ON=C(C#N)c1ccccc1Cl [Chlorophoxim] | 12-20-32
CCC(C)c1ccccc1OC(=O)NC (centres unmarked) [Bassa (Baycarb)] | 17-30-44
